Patent publication US20240376151A1, “STAPLED PEPTIDES AND METHODS THEREOF” (FOG PHARMACEUTICALS, INC., priority 2022, published 2024)
Results are given in words; binding and its absence hold for the method and conditions named. Some binding calls cover weakened binding; strength is not graded here.

Amino acid sequences for entries named in this document (tags omitted). A change or cut given only in a name is not applied to a line headed by its entry.
UniProt Q9NZQ7: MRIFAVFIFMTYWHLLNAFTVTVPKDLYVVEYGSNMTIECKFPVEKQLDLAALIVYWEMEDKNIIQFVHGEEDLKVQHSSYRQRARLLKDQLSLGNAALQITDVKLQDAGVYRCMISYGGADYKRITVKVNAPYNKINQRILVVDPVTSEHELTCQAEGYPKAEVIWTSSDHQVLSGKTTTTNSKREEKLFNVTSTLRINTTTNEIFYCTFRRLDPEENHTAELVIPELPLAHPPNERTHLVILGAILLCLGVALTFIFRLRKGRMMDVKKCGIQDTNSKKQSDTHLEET

Target: human PD-L1 (residues 18-239) with C-terminal TEV-10xHis-Avi tag, biotinylated (human) (UniProt Q9NZQ7)
Experiment: analytical SEC and TR-FRET (biotinylated PD-L1 + Alexa Fluor 488 PD-L1); dimer only with FP28132 (or BMS-1001) present

human PD-L1 (residues 18-239) with C-terminal TEV-10xHis-Avi tag, biotinylated (from UniProt Q9NZQ7 18-239) (receptor)
binding: binds
